This is an account of results in publication PMC8844928.

Where a protein sequence is shown, tags need not be part of it.

The data set deals with T1, LsrB (UniProt Q92PZ7).
T1 sequence (looked up): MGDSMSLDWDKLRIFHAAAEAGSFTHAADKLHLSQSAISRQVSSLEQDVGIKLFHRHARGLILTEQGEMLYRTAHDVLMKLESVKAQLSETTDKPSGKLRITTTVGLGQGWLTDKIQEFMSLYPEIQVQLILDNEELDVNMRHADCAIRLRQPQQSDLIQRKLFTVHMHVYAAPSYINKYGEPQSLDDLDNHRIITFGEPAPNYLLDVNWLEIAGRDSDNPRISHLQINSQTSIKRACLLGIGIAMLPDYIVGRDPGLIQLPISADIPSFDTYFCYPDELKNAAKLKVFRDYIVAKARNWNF
The data set can be described thus: EMSA. As to conditions: 1 uM LsrB, 100 nM probe; EMSA: 100 nM radiolabeled probe, 0 or 1 uM LsrB; recombinant protein; residues 1-302; protein details: N-terminal 10xHis (pET16b, Factor Xa site); label: radiolabeled; probe letters rebuilt from the primers and the genome. On the technique in general: A gel shift assay detects complexes by their altered migration in electrophoresis.

As for “TCTAGAGATGCATCAGCTGAGTGTGGTATGCTGCTTTTTTGGGCTATCGGCAATCATTTAATATGCATGACAGCCATGCCGTTTGCGCATCGCTGCTCATTTTTGCAGCGCACAAGGATTCGGTTTGCGAAGAGCTTCGCTTTCCCTTGAAAAGAGCCGAGGAATAACAAAGGCTTACGCAGGCTTTTGGCAATTGCTCACAAATCGGGCAATTGAACGGATCGTCAGAAGTTCCAGTTTCTCGCTTTAGCGACGATGTAATCGCGGAAGACTTTCAGCTTCGCTGCGTTCTTCAGTTCGTCCGGATAGCAGAAATAGGTATCGAAAGAGGGGATATCGGCGCTTATCGGCAGAATTCGACG (double strand) [PabcR1]”, the binding result is listed as “binds”.
